Experimental data: the supplement of paper PMC7666118
Some of the results follow.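 The calls were made as follows: active = dose-dependent thermal stabilisation significant by F-test of dose-response against flat model at 10% FDR; inactive = not significant.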

Protein sequences, listed by entry. Tags and fused reporters are not part of them. Lines headed by an entry give the natural chain unless they say otherwise; changes in a name come on top.
UniProt Q16401: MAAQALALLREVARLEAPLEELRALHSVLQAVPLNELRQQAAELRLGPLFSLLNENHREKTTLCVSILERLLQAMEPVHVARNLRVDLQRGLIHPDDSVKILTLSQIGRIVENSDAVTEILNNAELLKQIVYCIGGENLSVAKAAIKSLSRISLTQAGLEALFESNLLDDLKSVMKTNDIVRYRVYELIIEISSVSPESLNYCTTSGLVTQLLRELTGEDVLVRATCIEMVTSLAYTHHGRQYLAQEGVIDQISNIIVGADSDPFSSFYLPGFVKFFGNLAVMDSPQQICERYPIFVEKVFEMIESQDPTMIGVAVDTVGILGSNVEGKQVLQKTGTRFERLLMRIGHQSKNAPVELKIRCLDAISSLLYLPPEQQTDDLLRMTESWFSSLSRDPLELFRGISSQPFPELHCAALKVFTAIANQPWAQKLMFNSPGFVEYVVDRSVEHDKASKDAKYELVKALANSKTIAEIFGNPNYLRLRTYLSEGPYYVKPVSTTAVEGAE
UniProt P47224: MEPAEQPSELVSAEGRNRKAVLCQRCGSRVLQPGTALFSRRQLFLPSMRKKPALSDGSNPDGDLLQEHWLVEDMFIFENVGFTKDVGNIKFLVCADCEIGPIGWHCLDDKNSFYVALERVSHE
UniProt P25787: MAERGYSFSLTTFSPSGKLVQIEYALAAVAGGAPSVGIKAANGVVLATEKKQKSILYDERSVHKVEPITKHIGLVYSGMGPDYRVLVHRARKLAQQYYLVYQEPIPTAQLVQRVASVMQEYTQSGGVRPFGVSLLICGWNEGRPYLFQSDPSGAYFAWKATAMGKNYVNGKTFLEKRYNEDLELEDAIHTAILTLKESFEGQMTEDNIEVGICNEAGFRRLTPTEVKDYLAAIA
UniProt P18031: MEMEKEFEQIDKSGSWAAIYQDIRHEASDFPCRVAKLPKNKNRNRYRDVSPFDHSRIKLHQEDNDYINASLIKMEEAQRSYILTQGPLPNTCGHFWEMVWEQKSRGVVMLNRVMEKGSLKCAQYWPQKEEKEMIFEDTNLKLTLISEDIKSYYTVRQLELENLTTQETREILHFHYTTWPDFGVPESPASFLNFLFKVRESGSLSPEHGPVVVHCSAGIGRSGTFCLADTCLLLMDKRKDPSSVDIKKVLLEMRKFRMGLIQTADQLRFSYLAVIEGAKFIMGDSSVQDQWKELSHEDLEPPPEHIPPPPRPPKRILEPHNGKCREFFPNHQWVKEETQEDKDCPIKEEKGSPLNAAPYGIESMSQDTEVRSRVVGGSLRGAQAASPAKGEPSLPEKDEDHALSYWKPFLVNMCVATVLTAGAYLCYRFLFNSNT
UniProt Q92696: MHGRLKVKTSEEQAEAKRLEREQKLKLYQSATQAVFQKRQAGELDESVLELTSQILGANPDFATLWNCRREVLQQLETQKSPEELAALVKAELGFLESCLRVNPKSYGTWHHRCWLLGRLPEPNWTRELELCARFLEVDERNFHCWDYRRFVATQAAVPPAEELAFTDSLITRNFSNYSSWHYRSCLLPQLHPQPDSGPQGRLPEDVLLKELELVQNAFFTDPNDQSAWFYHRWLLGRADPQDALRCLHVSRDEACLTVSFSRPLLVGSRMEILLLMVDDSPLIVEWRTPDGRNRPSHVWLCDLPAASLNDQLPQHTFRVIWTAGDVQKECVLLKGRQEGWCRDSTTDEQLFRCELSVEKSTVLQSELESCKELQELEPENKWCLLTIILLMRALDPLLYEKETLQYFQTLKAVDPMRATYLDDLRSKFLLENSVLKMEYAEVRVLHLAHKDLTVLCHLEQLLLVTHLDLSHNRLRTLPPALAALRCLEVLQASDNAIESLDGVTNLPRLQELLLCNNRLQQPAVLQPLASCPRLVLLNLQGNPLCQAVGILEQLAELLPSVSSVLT
UniProt P32322: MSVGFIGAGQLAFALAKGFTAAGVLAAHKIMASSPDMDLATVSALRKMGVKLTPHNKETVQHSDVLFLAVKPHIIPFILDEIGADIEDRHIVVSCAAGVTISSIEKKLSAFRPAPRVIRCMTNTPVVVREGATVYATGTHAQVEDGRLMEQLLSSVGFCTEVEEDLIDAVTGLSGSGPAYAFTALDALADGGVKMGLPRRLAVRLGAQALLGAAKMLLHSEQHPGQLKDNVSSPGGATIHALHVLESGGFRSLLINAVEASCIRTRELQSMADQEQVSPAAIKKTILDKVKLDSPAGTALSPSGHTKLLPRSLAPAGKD
UniProt P62191: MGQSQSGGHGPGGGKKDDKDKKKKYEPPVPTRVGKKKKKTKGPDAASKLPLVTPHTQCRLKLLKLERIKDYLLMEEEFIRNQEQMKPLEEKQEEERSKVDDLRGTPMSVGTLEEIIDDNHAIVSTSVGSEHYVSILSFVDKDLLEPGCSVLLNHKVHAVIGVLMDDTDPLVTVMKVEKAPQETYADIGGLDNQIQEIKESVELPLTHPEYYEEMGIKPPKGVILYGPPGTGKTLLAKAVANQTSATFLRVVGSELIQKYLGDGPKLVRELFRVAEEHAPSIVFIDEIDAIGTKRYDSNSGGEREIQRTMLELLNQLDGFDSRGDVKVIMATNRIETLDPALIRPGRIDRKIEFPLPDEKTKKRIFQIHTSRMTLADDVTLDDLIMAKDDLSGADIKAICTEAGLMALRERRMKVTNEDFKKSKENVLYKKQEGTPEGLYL
UniProt Q2KHR3: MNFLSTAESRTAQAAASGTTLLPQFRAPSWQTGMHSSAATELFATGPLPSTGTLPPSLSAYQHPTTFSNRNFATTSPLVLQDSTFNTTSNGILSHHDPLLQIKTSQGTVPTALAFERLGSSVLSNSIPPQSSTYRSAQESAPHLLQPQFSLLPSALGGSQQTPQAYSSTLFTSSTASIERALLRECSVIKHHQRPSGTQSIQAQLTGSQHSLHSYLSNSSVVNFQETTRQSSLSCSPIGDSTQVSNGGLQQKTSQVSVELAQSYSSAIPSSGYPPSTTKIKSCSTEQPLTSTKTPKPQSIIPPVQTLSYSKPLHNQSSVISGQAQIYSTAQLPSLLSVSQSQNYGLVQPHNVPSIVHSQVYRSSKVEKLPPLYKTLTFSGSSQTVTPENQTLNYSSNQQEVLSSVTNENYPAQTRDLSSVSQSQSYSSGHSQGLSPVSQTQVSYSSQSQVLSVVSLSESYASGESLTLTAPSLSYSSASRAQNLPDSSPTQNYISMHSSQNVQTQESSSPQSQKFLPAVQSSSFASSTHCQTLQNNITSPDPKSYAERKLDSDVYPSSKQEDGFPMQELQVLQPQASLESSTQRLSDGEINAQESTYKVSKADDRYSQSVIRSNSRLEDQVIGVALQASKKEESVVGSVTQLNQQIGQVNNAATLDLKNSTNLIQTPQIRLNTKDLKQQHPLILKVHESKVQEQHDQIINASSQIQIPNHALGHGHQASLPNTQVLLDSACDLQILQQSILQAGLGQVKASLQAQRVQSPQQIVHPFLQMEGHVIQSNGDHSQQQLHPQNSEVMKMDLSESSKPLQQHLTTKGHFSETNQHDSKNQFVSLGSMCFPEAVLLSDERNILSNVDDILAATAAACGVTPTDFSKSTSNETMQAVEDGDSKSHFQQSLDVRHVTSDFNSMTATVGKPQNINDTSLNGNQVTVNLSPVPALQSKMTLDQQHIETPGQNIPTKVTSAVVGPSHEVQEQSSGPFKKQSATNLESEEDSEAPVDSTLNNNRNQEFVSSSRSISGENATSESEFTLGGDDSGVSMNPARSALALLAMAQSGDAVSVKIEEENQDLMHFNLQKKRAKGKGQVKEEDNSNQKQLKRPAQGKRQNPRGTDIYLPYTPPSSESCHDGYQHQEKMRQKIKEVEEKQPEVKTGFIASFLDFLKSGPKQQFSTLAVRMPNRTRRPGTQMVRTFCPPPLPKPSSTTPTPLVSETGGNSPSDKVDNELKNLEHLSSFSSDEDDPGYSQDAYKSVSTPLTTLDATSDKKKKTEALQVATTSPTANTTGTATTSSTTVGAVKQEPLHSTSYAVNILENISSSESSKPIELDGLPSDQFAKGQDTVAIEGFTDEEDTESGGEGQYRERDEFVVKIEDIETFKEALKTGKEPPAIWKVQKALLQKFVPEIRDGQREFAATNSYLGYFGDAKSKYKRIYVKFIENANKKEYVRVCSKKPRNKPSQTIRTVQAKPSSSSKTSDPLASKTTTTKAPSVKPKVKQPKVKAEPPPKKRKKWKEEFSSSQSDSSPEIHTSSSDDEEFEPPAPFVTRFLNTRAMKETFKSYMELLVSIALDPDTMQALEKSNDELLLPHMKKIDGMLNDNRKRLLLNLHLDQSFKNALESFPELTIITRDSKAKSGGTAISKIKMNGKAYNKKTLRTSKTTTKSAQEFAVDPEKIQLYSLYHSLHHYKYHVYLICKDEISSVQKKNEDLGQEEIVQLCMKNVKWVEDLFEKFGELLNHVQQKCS
UniProt O00487, whole entry: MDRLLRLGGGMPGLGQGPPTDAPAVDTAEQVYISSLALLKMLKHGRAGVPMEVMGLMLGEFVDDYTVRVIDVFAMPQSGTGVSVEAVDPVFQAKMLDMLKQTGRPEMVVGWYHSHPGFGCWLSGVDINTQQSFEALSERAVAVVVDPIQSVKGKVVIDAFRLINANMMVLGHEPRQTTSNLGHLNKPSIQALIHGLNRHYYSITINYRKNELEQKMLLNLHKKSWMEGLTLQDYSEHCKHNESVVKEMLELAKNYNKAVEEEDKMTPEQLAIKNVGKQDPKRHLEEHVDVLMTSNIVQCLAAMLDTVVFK
UniProt P43487, whole entry: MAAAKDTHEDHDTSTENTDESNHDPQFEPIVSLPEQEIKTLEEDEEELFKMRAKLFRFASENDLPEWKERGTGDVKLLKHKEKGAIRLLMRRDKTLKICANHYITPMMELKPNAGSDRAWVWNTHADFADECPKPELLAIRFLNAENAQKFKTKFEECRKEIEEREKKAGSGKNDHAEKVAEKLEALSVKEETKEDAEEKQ
UniProt Q9NVM4: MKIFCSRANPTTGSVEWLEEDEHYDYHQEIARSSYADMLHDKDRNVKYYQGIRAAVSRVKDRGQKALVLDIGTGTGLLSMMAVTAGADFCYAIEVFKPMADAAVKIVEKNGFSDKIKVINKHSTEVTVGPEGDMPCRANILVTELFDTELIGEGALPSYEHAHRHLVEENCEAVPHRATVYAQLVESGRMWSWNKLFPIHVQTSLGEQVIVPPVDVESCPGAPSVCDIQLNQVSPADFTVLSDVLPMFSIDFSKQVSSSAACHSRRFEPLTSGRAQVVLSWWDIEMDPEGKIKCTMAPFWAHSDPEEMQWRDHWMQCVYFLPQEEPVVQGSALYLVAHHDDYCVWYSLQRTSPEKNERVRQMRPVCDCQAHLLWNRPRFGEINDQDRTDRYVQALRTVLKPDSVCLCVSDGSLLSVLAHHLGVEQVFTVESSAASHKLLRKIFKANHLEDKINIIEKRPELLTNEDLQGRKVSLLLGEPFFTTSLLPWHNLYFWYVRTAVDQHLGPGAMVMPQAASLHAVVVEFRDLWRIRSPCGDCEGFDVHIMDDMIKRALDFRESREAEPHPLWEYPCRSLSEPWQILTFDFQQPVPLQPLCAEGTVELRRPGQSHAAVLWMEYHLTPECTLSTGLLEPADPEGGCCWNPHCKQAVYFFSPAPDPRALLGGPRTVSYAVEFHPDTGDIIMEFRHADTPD
UniProt Q5T8P6: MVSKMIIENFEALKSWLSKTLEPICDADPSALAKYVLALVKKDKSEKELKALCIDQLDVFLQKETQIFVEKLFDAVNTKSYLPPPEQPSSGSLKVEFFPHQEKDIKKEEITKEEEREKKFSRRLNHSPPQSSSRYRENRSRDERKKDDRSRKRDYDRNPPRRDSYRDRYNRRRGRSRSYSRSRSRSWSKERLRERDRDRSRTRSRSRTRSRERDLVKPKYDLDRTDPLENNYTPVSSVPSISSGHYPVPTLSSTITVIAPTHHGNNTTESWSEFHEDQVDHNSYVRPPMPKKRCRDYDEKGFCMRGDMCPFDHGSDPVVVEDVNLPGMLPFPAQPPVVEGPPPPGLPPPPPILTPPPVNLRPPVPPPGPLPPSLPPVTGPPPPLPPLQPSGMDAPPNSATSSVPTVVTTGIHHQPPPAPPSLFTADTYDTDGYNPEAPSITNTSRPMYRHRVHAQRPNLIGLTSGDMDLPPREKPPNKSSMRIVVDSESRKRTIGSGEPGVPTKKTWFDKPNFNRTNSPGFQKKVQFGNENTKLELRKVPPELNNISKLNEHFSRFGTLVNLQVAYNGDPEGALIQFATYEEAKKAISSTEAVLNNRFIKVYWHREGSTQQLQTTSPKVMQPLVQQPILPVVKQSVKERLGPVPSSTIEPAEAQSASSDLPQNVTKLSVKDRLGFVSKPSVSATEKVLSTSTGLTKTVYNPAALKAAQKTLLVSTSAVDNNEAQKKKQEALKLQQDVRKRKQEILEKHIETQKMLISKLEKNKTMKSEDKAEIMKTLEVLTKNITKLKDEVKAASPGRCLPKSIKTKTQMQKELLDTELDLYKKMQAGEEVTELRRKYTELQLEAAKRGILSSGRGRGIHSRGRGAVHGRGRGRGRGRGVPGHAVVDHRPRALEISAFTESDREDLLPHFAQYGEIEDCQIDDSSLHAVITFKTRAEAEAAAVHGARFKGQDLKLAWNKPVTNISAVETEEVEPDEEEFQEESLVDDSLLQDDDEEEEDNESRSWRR

The targets below were run with Nc1nc2c(ncn2[C@@H]2O[C@H](COP(=O)(O)OP(=O)(O)OP(=O)(O)O)[C@@H](O)[C@H]2O)c(=O)[nH]1 (assay: dose-dependent thermal stabilisation call (2D-TPP, DLPTP, 10% FDR) (binary (1 = stabilised)); higher = stabilised by the compound). Details: system: Jurkat gel-filtered lysate; concentration range 1-500 µM.
Description: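 2D thermal proteome profiling in gel-filtered Jurkat E6.1 lysate (2 mg/ml) treated with NaGTP (0, 1, 10, 100, 500 uM) for 10 min at room temperature, then heated 3 min at one of 12 temperatures (42-63.9 C). Soluble protein was quantified by TMT10 MS. The value is the DLPTP call of the paper: dose-dependent thermal stabilisation over all temperatures at 10% FDR (F-test of a dose-response against a flat model); one experiment, one call per tested protein.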

dose-dependent thermal stabilisation call, inactive:
PRPF4 (UniProt O43172) 0
PSMD5 (UniProt Q16401) 0
RAB22A (UniProt Q9UL26) 0
PSMD13 (UniProt Q9UNM6) 0
RALGAPB (UniProt Q86X10) 0
QKI (UniProt Q96PU8) 0
RAB5A (UniProt P20339) 0
RALY (UniProt Q9UKM9) 0
RAB11FIP1 (UniProt Q6WKZ4) 0
PRPF18 (UniProt Q99633) 0
PSMG1 (UniProt O95456) 0
RABIF (UniProt P47224) 0
PSMA2 (UniProt P25787) 0
PTPN1 (UniProt P18031) 0
PSMC3 (UniProt P17980) 0
RBBP6 (UniProt Q7Z6E9) 0
R3HDM1 (UniProt Q15032) 0
PRMT3 (UniProt O60678) 0
RABGAP1L (UniProt Q5R372) 0
PRKAB1 (UniProt Q9Y478) 0
PRKAG1 (UniProt P54619) 0
PSMD10 (UniProt O75832) 0
RAC1 (UniProt P63000) 0
RABGGTA (UniProt Q92696) 0
PYCR1 (UniProt P32322) 0
PSMC1 (UniProt P62191) 0
PYGO2 (UniProt Q9BRQ0) 0
QSER1 (UniProt Q2KHR3) 0
PSMD14 (UniProt O00487) 0
PSMD7 (UniProt P51665) 0
RANBP1 (UniProt P43487) 0
PSMB6 (UniProt P28072) 0
RBBP5 (UniProt Q15291) 0

3 entries drawn at random from the list so far:
dose-dependent thermal stabilisation call, inactive:
RALY (UniProt Q9UKM9) 0
R3HDM1 (UniProt Q15032) 0
QKI (UniProt Q96PU8) 0

Following part:

dose-dependent thermal stabilisation call, active:
PRMT7 (UniProt Q9NVM4) 1
RAB8B (UniProt Q92930) 1
RAB35 (UniProt Q15286) 1
PUS3 (UniProt Q9BZE2) 1
RBM26 (UniProt Q5T8P6) 1
PRKAR2B (UniProt P31323) 1
RALGAPA1 (UniProt Q6GYQ0) 1
